Assay results from PubChem BioAssay AID1487 (National Center for Advancing Translational Sciences (NCATS), 2009).
“And” between values parts separate entries of the source, which are not always exact repeats. Identical values can stand only once. The list shows a part of the results. These are further read-outs of the screen, such as a control signal, another cell line or another target. No call is given for them. Most of these compounds were active or inconclusive in the main read-out, so they are no random draw. Words in brackets tell the shape of the fitted curve; partial curves, single points and poor fits give uncertain potencies.

Test: qHTS Assay for Modulators of Lamin A Splicing
Details: HeLa LMNA splicing GFP/RFP minigene ratio, 48 h
How it was run: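 S3 HeLa stable clones carrying a lamin A-EGFP splicing minigene plus DsRed2 were seeded at 600 cells/well in Opti-MEM with 2% FBS, pin-dosed and incubated 48 h at 37°C. Acumen cytometry (488 nm) gave the GFP/RFP total-intensity ratio.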

[1] = measured here: RFP viability control channel
[2] = measured here: GFP splicing reporter channel

Compound | AC50 [1] | AC50 [2]
CCc1ccc(-n2nc(C)c3c(C(=O)N4CCN(c5cccc(Cl)c5)CC4)cc(C)nc32)cc1 | 15.8 µM [rising, partial curve, poor fit] | 
Cc1ccc(S(=O)(=O)N2c3ccccc3OCC2c2ccccc2)cc1 (stereo not drawn) | 11.2 µM [rising, partial curve] | 
CCOc1cc(C(=O)OCc2cc(=O)n3nc(C4CC4)sc3n2)cc(OCC)c1OCC | 0.00501 µM [falling, full curve, poor fit] | 
Cc1ccc2nc(SCC(=O)Nc3ccc4c(c3)CCC4)[nH]c2c1 | 14.1 µM [rising, single point] | 11.2 µM [rising, single point]
COc1ccccc1NC(=S)NCCC(c1ccccc1)c1ccccc1 | 15.8 µM [rising, partial curve] | 12.6 µM [rising, single point]
CC(C)(C)C(=O)Nc1ccc(C(=O)N/N=C/c2ccccc2OC(=O)c2ccccc2)cc1 |  | 14.1 µM [falling, single point]
S=c1[nH]nc(-c2ccncc2)n1/N=C/C=C/c1ccco1 | 1.41 µM [falling, full curve, poor fit] | 0.447 µM [falling, full curve, poor fit]
COc1ccccc1N1CCN(C(=O)CSc2nnc(NC(=O)C(C)C)s2)CC1 | 0.0112 µM [falling, full curve, poor fit] | 
COc1ccccc1C(=O)C1CCCN(C(=O)c2cc(C(C)C)no2)C1 (stereo not drawn) | 0.00501 µM [falling, full curve, poor fit] | 7.94 µM [falling, partial curve, poor fit]
Cc1ccc2cc(CN(CCN(C)C)C(=S)Nc3ccccc3)c(=O)[nH]c2c1C |  | 14.1 µM [falling, single point]
CCCCCOC(=O)c1[nH]c2c(c1C)C(=O)CC(c1ccco1)C2 (stereo not drawn) | 0.112 µM [rising, full curve] | 22.4 µM [falling, single point]
CC1=CC(=O)c2ccccc2C1=O | 11.2 µM [falling, single point] and 35.5 µM [falling, single point] | 11.2 µM [falling, single point] and 1 µM [falling, full curve] and 15.8 µM [falling, single point]
CCC(C)c1ccc(NC(=S)NCc2cccnc2)cc1 (stereo not drawn) | 14.1 µM [rising, single point] | 
CSc1ccc(-c2nc3cnccn3c2Nc2ccc3c(c2)OCO3)cc1 | 17.8 µM [rising, single point] | 35.5 µM [rising, single point]
CCCOc1ccc(Cc2c(Cl)nc(SC)nc2NC)cc1 | 3.98 µM [rising, partial curve, poor fit] | 
O=S(=O)(Nc1ccc(-c2ccc(N3CCCC3)nn2)cc1)c1ccc(OC(F)(F)F)cc1 |  | 0.0398 µM [falling, full curve, poor fit]
Cc1ccccc1C(=O)Nc1sc2c(c1C(=O)O)CCC2 |  | 2.51 µM [falling, single point]

Compound | AC50 [1] | AC50 [2]
CCCCn1c(-c2ccccc2)cnc1SCC(=O)NCCc1ccc(OC)c(OC)c1 | 17.8 µM [rising, single point] | 
CC12CCC(C(=O)N3CCN(C(c4ccccc4)c4ccccc4)CC3)(OC1=O)C2(C)C (stereo not drawn) | 22.4 µM [rising, single point] | 
O=C(CC12CC3CC(CC(C3)C1)C2)NCO |  | 0.00562 µM [rising, full curve, poor fit]
COc1cccc(CN2CCN(CCc3ccccc3)C(CCO)C2)c1OC (stereo not drawn) | 4.47 µM [falling, full curve, poor fit] | 4.47 µM [falling, full curve, poor fit]
O=C1/C(=C/c2ccc(N3CCOCC3)o2)SC(=Nc2ccccc2)N1CCc1c[nH]c2ccccc12 | 3.98 µM [falling, full curve] | 7.08 µM [falling, full curve]
Cc1csc2nc(CCNS(=O)(=O)c3ccc(F)cc3)cn12 | 0.158 µM [rising, full curve, poor fit] | 
CCOC(=O)Cn1nc(C)c(NC(=O)COc2ccc(F)cc2F)c1C | 0.0316 µM [falling, full curve] | 0.0316 µM [falling, full curve, poor fit]
O=C1CC(c2cccc(Cl)c2)c2cc3c(cc2N1)CCC3 (stereo not drawn) | 8.91 µM [falling, partial curve, poor fit] | 
Cc1ccc(-c2cc(C(F)F)nc(S(C)(=O)=O)n2)cc1 | 35.5 µM [falling, partial curve, poor fit] | 10 µM [falling, partial curve, poor fit]
CCCCCCCC(=O)N/N=C(\C)c1ccc(O)cc1O | 35.5 µM [rising, single point] | 31.6 µM [rising, single point]
CCCCCCc1cc2cc(S(=O)(=O)c3ccc(C)cc3)c(=O)oc2cc1O | 20 µM [rising, partial curve] | 
C=CCN1C(=Nc2cccnc2)SCC1(O)c1ccc(C)cc1 (stereo not drawn) | 2.51 µM [rising, full curve] | 0.631 µM [rising, full curve]
CC1CCCN(c2nc3c(c(=O)n(C)c(=O)n3C)n2CCSc2nc3ccccc3s2)C1 (stereo not drawn) | 15.8 µM [rising, partial curve] | 11.2 µM [rising, partial curve, poor fit]
COc1ccc(CNc2ccnc(-c3cccnc3)n2)c(OC)c1 |  | 8.91 µM [falling, partial curve]
COc1cccc(C(=O)N2CCCC(CCC(=O)NCc3ccc(F)c(F)c3)C2)c1 (stereo not drawn) | 3.16 µM [falling, partial curve, poor fit] | 
COc1cccc(-c2nccc(NCCc3c[nH]c4ccc(OC)cc34)n2)c1 | 11.2 µM [falling, partial curve] | 10 µM [falling, partial curve]
